Test results reported in US8853239B2, “Compounds, pharmaceutical compositions and uses thereof” (Boehringer Ingelheim International GmbH, priority 2011, dated 2014).

Biological target: T1, human GPR119 (Homo sapiens, UniProt Q8TDV5)
T1 construct: expression vector for human GPR119 cDNA (Acc. No. NP_848566); expressed in transfected cells
T1 sequence (Q8TDV5 1-335): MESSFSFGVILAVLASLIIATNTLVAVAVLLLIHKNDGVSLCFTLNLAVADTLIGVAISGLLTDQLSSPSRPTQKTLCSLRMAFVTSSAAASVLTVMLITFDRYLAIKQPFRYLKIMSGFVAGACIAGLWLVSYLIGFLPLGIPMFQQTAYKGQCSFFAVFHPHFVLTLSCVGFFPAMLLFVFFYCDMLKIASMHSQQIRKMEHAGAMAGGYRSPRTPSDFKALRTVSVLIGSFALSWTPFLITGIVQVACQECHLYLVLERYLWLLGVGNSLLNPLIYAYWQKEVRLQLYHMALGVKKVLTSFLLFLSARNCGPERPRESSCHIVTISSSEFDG
Experiment: AlphaScreen cAMP assay in MIN6 cells stably transfected with human GPR119
Format: cell-based
Settings: Min-6/hGPR119 cells, stimulation of intracellular cAMP, 45 minutes incubation at room temperature
Protocol: The compounds of formula I according to the invention modulate the activity of the G-protein-coupled receptor GPR119. The effect of the compounds on the activation of GPR119 and on the stimulation of intracellular cAMP concentration is determined using the AlphaScreen cAMP Assay Kit (Cat. No. #6760625R) made by PerkinElmer.
MIN6 cells [Miyazaki J et al. Endocrinology. 1990 July; 127(1):126-32] are stably transfected with an expression vector for human GPR119 cDNA (Acc. No. NP_848566). Min-6/hGPR119 cells are cultured in DMEM, 10% FBS, 50 μM β-mercaptoethanol, 0.3 mg/mL Geniticin, 2 mM GlutaMAX at 37° C. 5% CO2. For the assay, the cells are seeded in Optiplates (white, 384-well, 160W-barcoded, TC, sterile with lid, Cat. No. #6007688 (Perkin Elmer); 10000 cells/well; 50 μl). The plates covered with lids are then incubated for 24 hours at 37° C./5% CO2. After the medium is aspirated from the wells completely, 10 μl of the test compound are added, the compounds are diluted using stimulating buffer (140 mM NaCl, 3.6 mM KCl, 0.5 mM NaH2PO4, 0.5 mM MgSO4, 1.5 mM CaCl2, 10 mM Hepes, 5 mM NaHCO3; pH 7.4. 0.5 mM IBMX and 0.1% BSA, the final DMSO concentration is 1%). After 45 minutes incubation at room temperature (approx. 20° C.), the cAMP concentrations are determined using the AlphaScreen cAMP Assay Kit (Cat. No. #6760625R from PerkinElmer).

| EC50 | Compound |
| --- | --- |
| 25 nM | CS(=O)(=O)c1ccc(-c2cc3c(cn2)O[C@@H](C2CCN(CC4(C(F)(F)F)CC4)CC2)C3)cc1 [Example 17, (R)-5-(4-Methanesulfonyl-phenyl)-2-{1-[(1-trifluoromethyl-cyclopropyl)methyl]-piperidin-4-yl}-2,3-dihydro-furo[2,3-c]pyridine] |
| 25 nM | CS(=O)(=O)c1ccc(-c2cc3c(cn2)OC(C2CCN(CC4(C(F)(F)F)CC4)CC2)C3)cc1 (centres unmarked) [Example 2, 5-(4-Methanesulfonyl-phenyl)-2-{1-[(1-trifluoromethyl-cyclopropyl)methyl]-piperidin-4-yl}-2,3-dihydro-furo[2,3-c]pyridine] |
